Data from patent US6326465A, “Immunomodulatory polypeptides derived from the invariant chain of MHC class II” (The Johns Hopkins University, priority 1998, dated 2001).
Part of at least one peptide drawing is inferred or uncertain, most often the ends. For part of these data: At least one structure is not confirmed: it was looked up by name or label, or the drawing left a doubt. Where no end group is shown, it is not given here.

How the values were obtained:
Lewis target cells = experiment: Lysis of peptide-loaded target cells by 15 syngeneic GVHD effector clones; type: cell-based, rat
CRL1666 tumor cells = experiment: Tumor challenge after induction of auto GVHD with CLIP variants given intraperitoneally; type: in vivo; settings: 100 μg intraperitoneally
[1] = tested on: Lewis syngeneic PHA blasts; experiment: Lysis of PHA lymphoblast target cells by syngeneic GVHD effector T cells; type: cell-based, rat; settings: for effect of target-cell pretreatment on lysis mediated by CsA induced autoreactive T cells: force loading 10 μM peptide or antibody pretreatment; for Enhancement of Target Cell Recognition: target cells loaded with 10 uM, versus diluent treated target cells
Method: FIG. 1. Graph showing comparison of percent specific lysis conferred by truncated variants of CLIP. Lewis syngeneic PHA blasts were force-loaded with the truncated variants of CLIP (10 μmol/L, 1 hr, 4° C.) prior to assay. Effector T cells (nylon wool nonadherent) were derived from animals with syngeneic GVHD that were clonally expanded in thymectomized secondary Lewis recipients.
Truncated peptides from the rat MHC Class II invariant chain V0 : (sequence aa 82-103 […] (SEQ ID NO:1)), V1: aa 90-104 (SEQ ID NO:2), V2: 86-100 (SEQ ID NO:3), V3: 90-100(SEQ ID NO:4) were synthesized by Quality Controlled Biochemicals Co. (Hopkinton, Ma.) and purified by HPLC.^15,23 The peptides (>92% purity) were dissolved in RPMI 1640 prior to use. Force loading of CLIP was accomplished by incubating the cells in 10 μM of the peptide for 1 hr. at 4° C. […] Antibody was prepared to the CLIP peptide by Quality Controlled Biochemicals Co. The peptides were conjugated to keyhole limpet hemocyanin (KLH). Rabbits were immunized with the peptide-KLH conjugate. The antibody was affinity purified using peptide conjugated sepharose matrix columns.
We first evaluated whether CLIP in rats is recognized by the autoreactive T cells associated with CsA-induced syngeneic GVHD by comparing the lysis of target cells after various pretreatment conditions.
Target cells were loaded with the CLIP variants (10 uM) and evaluated for
their ability to be lysed by syngeneic GVHD effector T cells. Lytic
activity was compared to control diluent treated target cells with […]

[2] = […] 10^4 tumor cells, individual animals

KPVSPMLIYNREEYARF [chimeric construct]
recognition and lysis of loaded target cells (Lewis target cells): effectively lysed

KPVSPMRMATPLLMR [variant 2]
animals survived beyond 50 days (CRL1666 tumor cells): 3/3
SURVIVAL (CRL1666 tumor cells; [2]): > 50 days
effect of target-cell pretreatment on lysis mediated by CsA induced autoreactive T cells [1]: markedly increased the susceptibility of the target cells to lysis

PKSAKPVSPMRMATPLLMR
Enhancement of Target Cell Recognition [1]: +++ (enhancement representing at least a >25% increase in specific killing)

PKSAKPVSPMRMATPLLMRPLS [CLIP]
animals survived beyond 50 days (CRL1666 tumor cells): 2/3
SURVIVAL (days) (CRL1666 tumor cells; [2]): 22, >50, >50 days
Enhancement of Target Cell Recognition [1]: ++++ (enhancement representing at least a >25% increase in specific killing)

PMRMATPLLMR [variant 3]
effect of target-cell pretreatment on lysis mediated by CsA induced autoreactive T cells [1]: modestly inhibited lysis of the target cells

PVSPMRMATPLLMR [PVSP(R)]
Enhancement of Target Cell Recognition [1]: +++ (enhancement representing at least a >25% increase in specific killing)

SPMRMATPLLMR [SP(R)]
Enhancement of Target Cell Recognition [1]: 0

VSPMRMATPLLMR [VSP(R)]
Enhancement of Target Cell Recognition [1]: +++ (enhancement representing at least a >25% increase in specific killing)
